The source of these data is patent publication US8507527B2, “Method for stabilizing anti-dementia drug” (EISAI R & D Management Co., Ltd., priority 2004, dated 2013).

A value given as a limit tells only on which side of the number the result lay.

The nature of data set [1]: pH of aqueous solutions or suspensions of additives, polymers and donepezil hydrochloride. It is filed as physicochemical.
A short description of a further data set: physchem. As to conditions: 25 °C.

Consider `COc1cc2c(cc1OC)C(=O)C(CC1CCN(Cc3ccccc3)CC1)C2.Cl` (racemic) [donepezil hydrochloride, (±)-2-[(1-benzylpiperidin-4-yl)methyl]-5,6-dimethoxyindan-1-one monohydrochloride], for which the figures for the pH in data set [1] (2% aqueous solution) and in data set [1] (5% aqueous solution) were 5.0 and 4.8, respectively. Moreover, the solubility (in general, how much of the substance goes into solution per volume) was 11 to 16 mg/mL in “physchem” (pH 3, aqueous buffer); 11 to 16 mg/mL in the data set “physchem” (pH 6, aqueous buffer); ≤ 0.1 mg/mL in “physchem” (pH 8, aqueous buffer); 11 to 16 mg/mL in the data set “physchem” (simulated gastric fluid).
